Results deposited as PubChem BioAssay AID1224830 (NIAID, 2016).
In all, the deposit lists about 18,000 reagents; shown is a random part of them. Of all reagents, about 2,900 (16%) got an active call. 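Calls are made per well; low scores hint the gene aids the LPS response, high scores that it dampens it.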 Repeated entries: four replicate wells of each siRNA pool. No sequences are given here.

- Aim: 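Host factors that control LPS-induced TNF expression in human macrophages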 (primary screen)
- System: human THP-1 monocytic leukaemia cells, TNF dual-luciferase reporter clone, PMA-differentiated to macrophage-like cells
- Reagent: siRNA pool against human genes, 50 nM
- Duration: LPS for 4 h, given about 3 days after siRNA transfection
- Treatment: bacterial LPS (TLR4 ligand), 10 ng/ml
- Measured: 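TNF firefly reporter luminescence divided by renilla, normalised to the plate median, then turned into a robust z-score for each replicate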
- Direction: TNF reporter robust z-score: higher = stronger TNF reporter response to LPS
- Rule for the call: 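Each well counts as active if its z-score is over 2.8 or under -1.5; controls are left without a call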

gene knocked down | TNF reporter robust z-score | Call
CIMAP2 (GeneID 163747) | -0.81 | inactive
CIMAP2 (GeneID 163747) | 0.13 | inactive
CIMAP2 (GeneID 163747) | 0.03 | inactive
CIMAP2 (GeneID 163747) | -0.16 | inactive
DYSF (GeneID 8291) | -0.86 | inactive
DYSF (GeneID 8291) | -0.63 | inactive
DYSF (GeneID 8291) | -0.93 | inactive
DYSF (GeneID 8291) | -0.64 | inactive
ZC3H4 (GeneID 23211) | -0.66 | inactive
ZC3H4 (GeneID 23211) | -0.59 | inactive
ZC3H4 (GeneID 23211) | -0.97 | inactive
ZC3H4 (GeneID 23211) | -0.94 | inactive
GPR3 (GeneID 2827) | 0.71 | inactive
GPR3 (GeneID 2827) | 0.09 | inactive
GPR3 (GeneID 2827) | -0.71 | inactive
GPR3 (GeneID 2827) | -0.32 | inactive
TNNI1 (GeneID 7135) | -0.64 | inactive
TNNI1 (GeneID 7135) | 0.42 | inactive
TNNI1 (GeneID 7135) | 0.34 | inactive
TNNI1 (GeneID 7135) | 0.23 | inactive
SLC30A5 (GeneID 64924) | 0.48 | inactive
SLC30A5 (GeneID 64924) | 0.35 | inactive
SLC30A5 (GeneID 64924) | 0.38 | inactive
SLC30A5 (GeneID 64924) | 0.31 | inactive
CCPG1 (GeneID 9236) | 0.72 | inactive
CCPG1 (GeneID 9236) | -1.03 | inactive
CCPG1 (GeneID 9236) | -1.07 | inactive
CCPG1 (GeneID 9236) | -0.59 | inactive
CCPG1 (GeneID 9236) | 1.32 | inactive
CCPG1 (GeneID 9236) | 1.17 | inactive
CCPG1 (GeneID 9236) | 2.45 | inactive
CCPG1 (GeneID 9236) | 2.87 | active
CTAG1A (GeneID 246100) | -0.72 | inactive
CTAG1A (GeneID 246100) | -0.62 | inactive
CTAG1A (GeneID 246100) | -0.43 | inactive
CTAG1A (GeneID 246100) | 0.3 | inactive
PTCD3 (GeneID 55037) | -0.8 | inactive
PTCD3 (GeneID 55037) | -0.42 | inactive
PTCD3 (GeneID 55037) | 0.47 | inactive
PTCD3 (GeneID 55037) | -0.45 | inactive
KLK2 (GeneID 3817) | -0.72 | inactive
KLK2 (GeneID 3817) | -0.43 | inactive
KLK2 (GeneID 3817) | -0.53 | inactive
KLK2 (GeneID 3817) | -1.04 | inactive
LAMB1 (GeneID 3912) | 0.63 | inactive
LAMB1 (GeneID 3912) | 1.7 | inactive
LAMB1 (GeneID 3912) | 0.77 | inactive
LAMB1 (GeneID 3912) | 0.79 | inactive
ARPIN (GeneID 348110) | -0.67 | inactive
ARPIN (GeneID 348110) | -1.21 | inactive
ARPIN (GeneID 348110) | -0.55 | inactive
ARPIN (GeneID 348110) | -0.15 | inactive
STMN1 (GeneID 3925) | -0.25 | inactive
STMN1 (GeneID 3925) | -0.95 | inactive
STMN1 (GeneID 3925) | -1.46 | inactive
STMN1 (GeneID 3925) | -0.47 | inactive
ZNF271P (GeneID 10778) | 3.23 | active
ZNF271P (GeneID 10778) | 0.74 | inactive
ZNF271P (GeneID 10778) | 1.42 | inactive
ZNF271P (GeneID 10778) | -0.44 | inactive
RPP30 (GeneID 10556) | 0 | inactive
RPP30 (GeneID 10556) | 0.06 | inactive
RPP30 (GeneID 10556) | -0.44 | inactive
RPP30 (GeneID 10556) | 0.18 | inactive
MEDAG (GeneID 84935) | -1.63 | active
MEDAG (GeneID 84935) | -1.17 | inactive
MEDAG (GeneID 84935) | -1.32 | inactive
EIF2A (GeneID 83939) | -0.1 | inactive
EIF2A (GeneID 83939) | 0.51 | inactive
EIF2A (GeneID 83939) | 0.66 | inactive
EIF2A (GeneID 83939) | 1.11 | inactive
OSBPL11 (GeneID 114885) | 1.14 | inactive
OSBPL11 (GeneID 114885) | 1.1 | inactive
OSBPL11 (GeneID 114885) | 0.7 | inactive
OSBPL11 (GeneID 114885) | 1.34 | inactive
CYP4F11 (GeneID 57834) | -1.89 | active
CYP4F11 (GeneID 57834) | -0.69 | inactive
CYP4F11 (GeneID 57834) | -1.04 | inactive
CYP4F11 (GeneID 57834) | -0.79 | inactive
NT5DC3 (GeneID 51559) | 0.11 | inactive
NT5DC3 (GeneID 51559) | -0.25 | inactive
NT5DC3 (GeneID 51559) | -0.26 | inactive
NT5DC3 (GeneID 51559) | 0.65 | inactive
DLG2 (GeneID 1740) | 0.61 | inactive
DLG2 (GeneID 1740) | 1.11 | inactive
DLG2 (GeneID 1740) | 0.34 | inactive
DLG2 (GeneID 1740) | 1.68 | inactive
RPAP1 (GeneID 26015) | -0.02 | inactive
RPAP1 (GeneID 26015) | -0.17 | inactive
RPAP1 (GeneID 26015) | 0.13 | inactive
RPAP1 (GeneID 26015) | 0.91 | inactive
SLC17A7 (GeneID 57030) | 1.48 | inactive
SLC17A7 (GeneID 57030) | 1.81 | inactive
SLC17A7 (GeneID 57030) | 0.99 | inactive
SLC17A7 (GeneID 57030) | 1.83 | inactive
SCGB2B2 (GeneID 284402) | 2.29 | inactive
SCGB2B2 (GeneID 284402) | 0.78 | inactive
SCGB2B2 (GeneID 284402) | -0.74 | inactive
SCGB2B2 (GeneID 284402) | -0.78 | inactive
STXBP2 (GeneID 6813) | 0.77 | inactive
STXBP2 (GeneID 6813) | 0.69 | inactive
STXBP2 (GeneID 6813) | 0.1 | inactive
STXBP2 (GeneID 6813) | 2.27 | inactive
FMO1 (GeneID 2326) | 2.38 | inactive
FMO1 (GeneID 2326) | 6.73 | active
FMO1 (GeneID 2326) | 1.46 | inactive
FMO1 (GeneID 2326) | 1.15 | inactive
SMG1 (GeneID 23049) | -1.12 | inactive
SMG1 (GeneID 23049) | -1.64 | active
SMG1 (GeneID 23049) | 0.02 | inactive
SMG1 (GeneID 23049) | -0.49 | inactive

Records above called active, once more:
gene knocked down | TNF reporter robust z-score | Call
CCPG1 (GeneID 9236) | 2.87 | active
ZNF271P (GeneID 10778) | 3.23 | active
MEDAG (GeneID 84935) | -1.63 | active
CYP4F11 (GeneID 57834) | -1.89 | active
FMO1 (GeneID 2326) | 6.73 | active
SMG1 (GeneID 23049) | -1.64 | active
